# Test results taken from PubChem BioAssay AID2685 (National Center for Advancing Translational Sciences (NCATS), 2010).
# The whole screen tested about 320,000 compounds, of which about 2,100 (0.66%) were called active. The shares of active, inactive and inconclusive entries below differ from those in the screen. The call rests on the fitted dose curve; in most records, active means well fitted inhibition curve with a large enough effect in the signal ratio, with a control signal flat (not every such curve was filed as active); inconclusive means small, poorly fitted or top-dose-only effect, or effect the other way, or a change in a side signal; inactive means flat fitted curve, though single readings scatter; the % refers to the signal ratio. Where the call is inconclusive, the potency comes from a doubtful curve fit.
# Test: qHTS Assay for Lipid Storage Modulators in Drosophila S3 Cells
# Conditions: BODIPY lipid droplet fluorescence, 18-24 h, cells fed with added oleic acid; lipid storage change, negative = inhibition: at 46.1 µM (top of the series) unless noted
# Procedure, shortened: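 Laser-scanning cytometry quantifies lipid droplet accumulation (500–530 nm total intensity; droplet/cell object ratio) in oleic acid-fed (400 uM added) Drosophila S3 cells treated with a concentration series. 20 uM Triacsin C defined 100% inhibition.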
# On the % scale 0 is the no-effect control and ±100 the full control effect; potency means the concentration at half of the fitted maximal effect.
Compound,"lipid storage change, negative = inhibition",Potency
CC(=O)COc1ccccc1OC(=O)c1ccco1,inconclusive: -0.619%,
O=c1[nH]cccc1-c1nc2cc(Cl)ccc2n1Cc1ccccc1,inconclusive: 21.7%,
CNC(=S)Nc1ccc(C)c(NC(=S)NC)c1,inconclusive: 1.1%,
COc1ccccc1CC(=O)Nc1ccc(S(=O)(=O)N(C)C2CCN(C)CC2)cc1,inconclusive: 15.9%,
CC(NC(=O)CCl)c1ccccc1Br (stereo not given),,"inconclusive: 8.2 µM [falling, partial curve, poor fit]"
CN(C)c1cccc(C(=O)N(C)C2CCCN(Cc3ccccc3F)C2)c1 (stereo not given),,"inconclusive: 5.8 µM [activator, partial curve, poor fit]"
CC(C)C(=O)NC(=S)Nc1ccccc1N1CCN(C(=O)c2ccc(Cl)cc2)CC1,,"inconclusive: 8.2 µM [cytotoxic, partial curve]"
COCCCn1[nH]c2c3c(ccc2c1=O)C(=O)c1ccccc1C3=O,,"inconclusive: 4.61 µM [activator, partial curve]"
Cc1cc(NC(C)c2ccccc2)n2ncc(-c3ccccc3)c2n1 (stereo not given),inconclusive: 20%,
CCOC(=O)N1CCN(C(=O)c2c(Cl)cnn2C)CC1,,"inconclusive: 29.1 µM [activator, single point]"
CC(Oc1ccc2c(c1)c1ccnc3c4ccccc4c(=O)n2c13)C(=O)NCCN1CCOCC1 (stereo not given),,"inconclusive: 1.3 µM [falling, full curve]"
O=C(NCC1CCCO1)C1CCCN(S(=O)(=O)c2cc(Cl)ccc2Cl)C1 (stereo not given),inconclusive: 10.5%,
CCOC(=O)c1ccc(NC(=O)Nc2cc(C)cc(C)n2)cc1,inconclusive: 5.31%,
CN(Cc1cccs1)C(=O)c1cc(S(=O)(=O)N2CCOCC2)ccc1N1CCCC1,inconclusive: 8.69%,
Clc1nc(CN2CCOCC2)nc2sc3c(c12)CCC3,inconclusive: -5.42%,
CCOC(=O)c1[nH]c(C)c(C(=O)NCc2ccc(OC)cc2)c1C,inconclusive: 5.82%,
CCOC(=O)C1=C(C)N(C)C(=O)NC1c1ccc2c(c1)OCO2 (stereo not given),inconclusive: 16.9%,
CCn1c(SCC(=O)c2c[nH]c3ccccc23)nc2cc(S(=O)(=O)N3CCOCC3)ccc21,inconclusive: -15.6%,
Cc1n[nH]c(=O)n1-c1ccc(C(C)(C)C)cc1,inconclusive: 16.2%,
O=C(CCl)NC(Cc1c[nH]c2ccc(OCc3ccccc3)cc12)C(=O)O (stereo not given),,"inconclusive: 29.1 µM [activator, single point]"
CN1CCc2c(sc(NC(=O)CS(=O)(=O)c3ccc(F)cc3)c2C(N)=O)C1,inconclusive,
CCCCc1nc(SCC(=O)Nc2ccc(S(N)(=O)=O)cc2)n[nH]1,,"inconclusive: 1.64 µM [falling, full curve]"
COCCN(CCOC)C(=O)CN1C(=O)NC2(CCCc3sccc32)C1=O (stereo not given),,"inconclusive: 6.51 µM [falling, single point]"
NC(=O)COc1ccccc1C(=O)NC12CC3CC(CC(C3)C1)C2,inconclusive: 23%,
Cc1cccc(NS(=O)(=O)c2c(C)n[nH]c2C)c1,inconclusive: 3.64%,

Compound,"lipid storage change, negative = inhibition",Potency
O=[N+]([O-])c1cc(C(F)(F)F)ccc1N1CCCC(O)C1 (stereo not given),,"inconclusive: 4.11 µM [falling, single point]"
O=C(c1cc2nc(-c3cccs3)cc(C(F)(F)F)n2n1)N1CCCc2ccccc21,inconclusive: -3.23%,
CCN(C(=O)CCS(=O)(=O)c1cccc2nonc12)c1ccc(F)cc1,,"inconclusive: 3.26 µM [falling, partial curve, poor fit]"
Cn1c(-c2cc(Cl)ccc2O)nc2c1c(=O)[nH]c(=O)n2Cc1ccccc1,,"inconclusive: 32.6 µM [activator, single point]"
Cc1cc(C)cc(CSc2ccc(S(=O)(=O)N3CCCC3)cn2)c1,inconclusive: 22.8%,
O=C(CN1CCN(c2ccccc2F)CC1)c1ccc2cc[nH]c2c1,,"inconclusive: 3.66 µM [activator, single point]"
COc1ccc(N2CCN(C(=O)Cn3c(=O)c4cccn4c4cccnc43)CC2)cc1,inactive,
COc1ccc(CC(=O)Nc2cccc(S(=O)(=O)N3CCCCC3)c2)cc1,inactive,
CCCN(CCC)CCNC(=O)C(NS(=O)(=O)c1ccc2c(c1)CCC(=O)N2)c1ccccc1 (stereo not given),inconclusive: -35.8%,
COc1cc(/C=C/C(=O)OCC(=O)N2CCCc3ccccc32)ccc1OC(F)F,,"inconclusive: 3.66 µM [falling, full curve, poor fit]"
CCOC(=O)C1CCN(c2c(NCCCN(CC)c3ccccc3)c(=O)c2=O)CC1,inconclusive: -40.4%,
Cc1ccc(OS(=O)(=O)c2c(C)nn(C)c2Cl)c(C)c1,inconclusive: -7.13%,
Cc1ccc(C(=O)NC2CC(C)(C)NC(C)(C)C2)cc1,,"inconclusive: 29.1 µM [activator, single point]"
COC(=O)c1ccc(NC(=O)COc2ccc3c(c2)OCO3)cc1,inconclusive: -168%,
O=C(O)Cn1c(=O)c2c3c(sc2n(Cc2ccccc2F)c1=O)CCCC3,inconclusive: 20.1%,
O=C(NCC1CCCO1)C(c1cccs1)N(C(=O)Cn1nnc(-c2cccs2)n1)C1CCCC1 (stereo not given),,"inconclusive: 25.9 µM [falling, single point]"
O=C(NCc1ccc(Cl)cc1)C1CC(O)CN1S(=O)(=O)c1ccc(Cl)cc1 (stereo not given),inconclusive: -131%,
COc1ccc(C)cc1NC(=O)C(NCC(O)c1ccccc1)c1ccccc1 (stereo not given),inconclusive: 2.95%,
COc1ccc(NC(=O)COc2cc(O)c3c(c2)OC(C)(C)CC3=O)cc1,inconclusive: -3.8%,
CCOc1ccc(S(=O)(=O)N(CC(=O)NCc2cccnc2)c2ccc(C)cc2)cc1,,"inconclusive: 2.91 µM [falling, single point]"
Cc1cc(C)c(NC(=O)CSc2nnc(Cc3cccn3C)n2-c2ccc(F)cc2)c(C)c1,,"inconclusive: 18.4 µM [falling, single point]"
Cc1ccc(NC(=O)C2CCN(C(=O)c3ccccc3C)CC2)cc1,inconclusive: 13.7%,
CCOc1ccc(C(=O)N/N=C/c2ccc(SC)cc2)cc1,,"inconclusive: 1.84 µM [activator, partial curve]"
Clc1ncnc2c1oc1ccccc12,,"inconclusive: 29.1 µM [cytotoxic, single point]"
CCOC(=O)COc1cnc2ccccc2n1,inconclusive: -9.46%,

# Shown with tabs: 4 of the compounds above.
Compound	lipid storage change, negative = inhibition	Potency
O=C(NCc1ccc(Cl)cc1)C1CC(O)CN1S(=O)(=O)c1ccc(Cl)cc1 (stereo not given)	inconclusive: -131%	
COc1ccc(C)cc1NC(=O)C(NCC(O)c1ccccc1)c1ccccc1 (stereo not given)	inconclusive: 2.95%	
COc1ccc(NC(=O)COc2cc(O)c3c(c2)OC(C)(C)CC3=O)cc1	inconclusive: -3.8%	
CCOc1ccc(S(=O)(=O)N(CC(=O)NCc2cccnc2)c2ccc(C)cc2)cc1		inconclusive: 2.91 µM [falling, single point]

# Following part.

Compound,"lipid storage change, negative = inhibition",Potency
Cc1ccc(S(=O)(=O)c2c(O)c3ccc(C(=O)O)cc3[nH]c2=O)cc1,,active: 11.6 µM
COc1ccccc1CC(=O)OC(C)C(=O)Nc1ccc(S(=O)(=O)N2CCCCC2)cc1 (stereo not given),,"inconclusive: 14.6 µM [falling, partial curve, poor fit]"
COc1ccccc1-n1nc(C(=O)O)c2ccccc2c1=O,,"inconclusive: 6.51 µM [falling, single point]"
Cc1ccc(NC(=O)COC(=O)CSC(=S)N2CCOCC2)cc1C,inactive,
CC1CCCN(c2nc3c(c(=O)n(C)c(=O)n3C)n2Cc2ccccc2)C1 (stereo not given),inconclusive: 16.4%,
CNC(=O)/C(C#N)=c1\s/c(=C/C(=O)OC)c(=O)n1-c1ccccc1,,"inconclusive: 7.31 µM [activator, partial curve, poor fit]"
COc1cc(NC(=O)COC(=O)c2n[nH]c3ccccc23)c(C)cc1[N+](=O)[O-],inconclusive: 0.709%,
CN(C)S(=O)(=O)c1ccc(NC(=O)C2CC3C=CC2C3)cc1 (stereo not given),inconclusive: -3.37%,
C=CCn1c(SC2CCOC2=O)nc2sc(CC)cc2c1=O (stereo not given),inconclusive: 3.39%,
CCN(CC)c1ccc(/C=N/NC(=O)c2cccc(S(=O)(=O)N3CCOCC3)c2)c(O)c1,inconclusive: -22.6% [cytotoxic],
O=C(Nc1cccc(-c2nnc(-c3ccco3)o2)c1)c1ccccc1,inconclusive: 20%,
O=C(OCC(=O)N1CCc2ccccc21)c1ccc[nH]c1=O,inconclusive: -24.7%,
Nc1c(S(=O)(=O)c2ccccc2)c2nc3ccccc3nc2n1/N=C/c1ccco1,,"inconclusive: 16.4 µM [cytotoxic, partial curve]"
O=C(Nc1ccccc1N1CCOCC1)c1cc(Cl)c2c(c1)OCO2,,"inconclusive: 2.06 µM [activator, full curve]"
O=C(CN1CCN(S(=O)(=O)c2cccc(F)c2)CC1)NCC1(N2CCOCC2)CCCCC1,inconclusive: 26.4%,
Cc1cccc(C)c1NC(=O)c1ccccc1C(=O)O,inconclusive: -31.9%,
COc1ccc(C(=O)N2CCCc3ccccc32)cc1OC,inconclusive: 11.9%,
CCCN1C(=O)/C(=C/c2ccc(C)o2)SC1=Nc1ccc(OC)cc1,,"inconclusive: 6.51 µM [rising, partial curve]"
O=C(CCl)N1CCN(S(=O)(=O)Cc2ccccc2)CC1,inconclusive: -46.1%,
Cn1cc(C(=O)C(=O)N2CCCC2)c2ccccc21,inconclusive: 69.2%,
Cc1cc(OCCn2ccnc2)ccc1C(C)C,,"inconclusive: 6.51 µM [falling, single point]"
CC1CCCC(C)N1C(=O)CSc1nnc(NC(=O)Cc2cccs2)s1 (stereo not given),,"inconclusive: 2.06 µM [falling, full curve, poor fit]"
CCCN(CCC)CC(O)CN(c1ccccc1)S(=O)(=O)c1ccc(C)cc1 (stereo not given),inconclusive: -5.09%,
Nc1nn(-c2ccccc2)c(N)c1N=Nc1ccc2c(c1)OCO2,,"inconclusive: 0.116 µM [rising, full curve, poor fit]"
Cc1ccc(NC(=O)COc2ccccc2)cc1S(=O)(=O)N1CCCCCC1,,"inconclusive: 2.06 µM [activator, full curve]"
